# Source: PMC7819943, “Rice protein-binding microarrays: a tool to detect cis-acting elements near promoter regions in rice”
# Amino acid sequences for entries named in this document (tags omitted).
# UniProt Q0JBA9, entry or part of it: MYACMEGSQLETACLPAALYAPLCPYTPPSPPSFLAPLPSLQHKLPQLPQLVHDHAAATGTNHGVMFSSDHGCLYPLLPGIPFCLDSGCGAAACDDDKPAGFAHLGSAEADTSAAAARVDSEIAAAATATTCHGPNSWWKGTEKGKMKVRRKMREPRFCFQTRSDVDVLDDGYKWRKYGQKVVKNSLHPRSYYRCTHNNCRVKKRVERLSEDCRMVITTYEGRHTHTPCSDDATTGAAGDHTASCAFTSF
# The list shows a part of the results.
# Target: OsWRKY34 (Oryza sativa, UniProt Q0JBA9 1-250)
# Assay: protein-binding microarray (RPBM); PBS, 2% BSA, 51.3 ng/ul salmon testes DNA, 50 uM zinc acetate, 200 nM TF, 25 C, 1 h; high values mean tight binding
# Conditions: protein: recombinant; tags: N-terminal polyhistidine and DsRed monomer fusion (pET32a); label: CyDye5-dUTP incorporated in the synthesized complementary strand; 3' TTTTT single-stranded linker to array surface; dsDNA, one strand shown
# Outline: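 The binding signal is fluorescence intensity per array feature (arbitrary units). Readings came from an Axon 4000B scanner after a washed, 2% BSA-blocked, double-stranded custom Agilent array had been incubated for 1 h at 25 °C with 200 nM protein and 50 µM zinc acetate. The protein was a Ni–NTA-purified transcription factor fused N-terminally to polyhistidine and DsRed, expressed in E. coli BL21-CodonPlus.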
row,Sequence,binding signal
1,ATAGACAGTTCAGGGTTAAAATATTTCGGTTTTGTGGTTTCGGAGTCACCTAGTGCAG,8490 fluorescence intensity (a.u.)
2,TTTCAGCTTCCATCATCACCATCACTACTATTCACTACTTCGGAGTCACCTAGTGCAG,8500 fluorescence intensity (a.u.)
3,TCTGGACTGTGTGTTCTTCTTTGGTGGCAGATTTGGTTTGCGGAGTCACCTAGTGCAG,10300 fluorescence intensity (a.u.)
4,TGCAATCTTTCGTAACAATCTCTGCCACGGTGCACCCCTCCGGAGTCACCTAGTGCAG,8540 fluorescence intensity (a.u.)
5,GACAGACACTTGCACTTGCTCTCCGCTGCCGTTCCCCTTCCGGAGTCACCTAGTGCAG,8500 fluorescence intensity (a.u.)
6,GCCGCCAGCTCACCCTGACACGCACGCCACGTGCGCCACCCGGAGTCACCTAGTGCAG,8470 fluorescence intensity (a.u.)
7,TAATCCGCTACGTTGCCCTGGTTTGTCTGTGCATTTTTCGCGGAGTCACCTAGTGCAG,8230 fluorescence intensity (a.u.)
8,AATCGTTGTCTCCTACAGTAACATTTTCACACATTGCACACGGAGTCACCTAGTGCAG,9080 fluorescence intensity (a.u.)
9,TATTATAGTAGAGACTTGGTCAAACTTTCAAAAAGTTTGACGGAGTCACCTAGTGCAG,8120 fluorescence intensity (a.u.)
10,GCCCGCCGGACCTGATCCCGCCTCACCTCACCGGCGCCGCCGGAGTCACCTAGTGCAG,9350 fluorescence intensity (a.u.)
11,TTTACCACCAAAACTTTTGCCATTTGCTATTTGCTATTCCCGGAGTCACCTAGTGCAG,9180 fluorescence intensity (a.u.)
12,AATTTAGCTCCAATTATGTCCAACTCATCTATAACTTACTCGGAGTCACCTAGTGCAG,8660 fluorescence intensity (a.u.)
13,CCCATCTCACCTCCACCCTATCATCAAGTGACTAAATTCGCGGAGTCACCTAGTGCAG,10000 fluorescence intensity (a.u.)
14,CTTCTTCGTTGCATTCATCTTGCTAGCTAGCTTAGCAATGCGGAGTCACCTAGTGCAG,8640 fluorescence intensity (a.u.)
15,TAACACCAAATCTATTGGTCTCTTGTCCTCATCACCAAACCGGAGTCACCTAGTGCAG,8870 fluorescence intensity (a.u.)
16,ATCTTTGGTGTTTCTTTGCGTATTTGTTATGATGATACCACGGAGTCACCTAGTGCAG,8070 fluorescence intensity (a.u.)
17,AGGGTTGACTTTACTTCTTTGGGCCTCTCAGATCTGTTCTCGGAGTCACCTAGTGCAG,15900 fluorescence intensity (a.u.)
18,TAGCGGTTGGGGCAGGGGCCGTTCGGTTTCGCGGTCAAGCCGGAGTCACCTAGTGCAG,10500 fluorescence intensity (a.u.)
19,CGATAAACCTTACCCTATTTAATTTTCCCTACTGAATTTTCGGAGTCACCTAGTGCAG,8980 fluorescence intensity (a.u.)
20,CATGGGTGATATTTGGGATGTTCTTTTAAATCTTCATATACGGAGTCACCTAGTGCAG,8480 fluorescence intensity (a.u.)
21,TCGACAAGCTAGATCCACACACAACAATAATCGCAACTATCGGAGTCACCTAGTGCAG,8490 fluorescence intensity (a.u.)

row,Sequence,binding signal
1,CTCGCATCAGCCGCGTCATTTCTCACGTTTTTCCCACGTCCGGAGTCACCTAGTGCAG,10800 fluorescence intensity (a.u.)
2,TAGTATCGGAGTATATCTTATTGTACCTGCTCTAACAATTCGGAGTCACCTAGTGCAG,8240 fluorescence intensity (a.u.)
3,TTCGTGTCGCGATTTTCATGCAAATTGTACAATTAGTTTACGGAGTCACCTAGTGCAG,8290 fluorescence intensity (a.u.)
4,TCTGAAATCCTGCAGCTCCTATCTCTCTTTCATCTTTCTTCGGAGTCACCTAGTGCAG,11400 fluorescence intensity (a.u.)
5,CTCTCACACAGTCTCTCTCTCTCTCTCTCTCTCTCTCTCTCGGAGTCACCTAGTGCAG,9900 fluorescence intensity (a.u.)
6,AAGTATCCGTAATTTCGTGTTTTTTTTTTTGCATGCAACCCGGAGTCACCTAGTGCAG,8130 fluorescence intensity (a.u.)
7,ATGCAGACTTCTTATTAGCTTTGTTCCTTCCCTTCTTTTGCGGAGTCACCTAGTGCAG,9760 fluorescence intensity (a.u.)
8,CCTTCGCTGTTACCACCTCTCCGCCCACCAAACGGGCTGACGGAGTCACCTAGTGCAG,13900 fluorescence intensity (a.u.)
9,ATACTAGGAATATACTGGCTTGTTCTTCGTGAGATGCATACGGAGTCACCTAGTGCAG,9780 fluorescence intensity (a.u.)
10,AGATTGTCTTGTTTTTCACCCTGTGAAATTCGCTCTCATCCGGAGTCACCTAGTGCAG,10600 fluorescence intensity (a.u.)
11,TTTGTTGATTTGTTTTGGTTGGATTGATCTGTCGCTTATACGGAGTCACCTAGTGCAG,14100 fluorescence intensity (a.u.)
12,TTGCTCTATCTTTTTCCGTTTGGCCTTTTTTTGACGGTCACGGAGTCACCTAGTGCAG,13500 fluorescence intensity (a.u.)
13,AAACTTTGCATTTTCCCATCACATCAACCTGTCATACACACGGAGTCACCTAGTGCAG,10800 fluorescence intensity (a.u.)
14,TAGCCACAGTTTTGCTGACGTTCTCTTTTATCTGTTTGCTCGGAGTCACCTAGTGCAG,10300 fluorescence intensity (a.u.)
15,GGTTGAGGAACAATGCAGCGGTTAGGGTGAAATTTCGCTCCGGAGTCACCTAGTGCAG,8500 fluorescence intensity (a.u.)
16,CGATGTTGTGGGCTGCCTGTTGAATTGATCAAGTGCTAATCGGAGTCACCTAGTGCAG,8180 fluorescence intensity (a.u.)
17,CACTGCGTTTCCACACTTCCACCACCACCACCACCACGACCGGAGTCACCTAGTGCAG,12300 fluorescence intensity (a.u.)
18,CAACCACCTAGTCCCTGCTCACGAAGCCACGATCTTATCCCGGAGTCACCTAGTGCAG,8640 fluorescence intensity (a.u.)
19,GCGGTGGTGGACAGTCCCAGACTGACTTGTGGTGGGGACTCGGAGTCACCTAGTGCAG,9560 fluorescence intensity (a.u.)
20,CACTCTCCCCGTCGGGCCGTCCCGTGCACGTTAATCCAACCGGAGTCACCTAGTGCAG,8650 fluorescence intensity (a.u.)
21,GTCGTGCCATCAGTTCTGACCGCATACGCATATATATATACGGAGTCACCTAGTGCAG,10500 fluorescence intensity (a.u.)

# A different layout for some results above.
row	Sequence	binding signal
9	TATTATAGTAGAGACTTGGTCAAACTTTCAAAAAGTTTGACGGAGTCACCTAGTGCAG	8120 fluorescence intensity (a.u.)
10	GCCCGCCGGACCTGATCCCGCCTCACCTCACCGGCGCCGCCGGAGTCACCTAGTGCAG	9350 fluorescence intensity (a.u.)
11	TTTACCACCAAAACTTTTGCCATTTGCTATTTGCTATTCCCGGAGTCACCTAGTGCAG	9180 fluorescence intensity (a.u.)
